Results on 42 sequences are retold here after PMC7819943, “Rice protein-binding microarrays: a tool to detect cis-acting elements near promoter regions in rice”.

Protein sequences, listed by entry. Tags and fused reporters are not part of them.
UniProt Q0JBA9, entry or part of it: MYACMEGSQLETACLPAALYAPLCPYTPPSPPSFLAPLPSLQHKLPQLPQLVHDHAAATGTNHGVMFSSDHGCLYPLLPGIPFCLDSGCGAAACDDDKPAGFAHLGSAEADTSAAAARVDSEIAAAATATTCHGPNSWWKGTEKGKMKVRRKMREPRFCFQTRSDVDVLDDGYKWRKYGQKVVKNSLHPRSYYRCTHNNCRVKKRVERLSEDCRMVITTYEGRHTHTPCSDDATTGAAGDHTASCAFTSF

Some of the results follow.

The target of this test is OsWRKY34 (Oryza sativa, UniProt Q0JBA9 1-250). The test is described as follows: protein-binding microarray (RPBM); PBS, 2% BSA, 51.3 ng/ul salmon testes DNA, 50 uM zinc acetate, 200 nM TF, 25 C, 1 h; high values mean tight binding. Particulars: protein: recombinant; tags: N-terminal polyhistidine and DsRed monomer fusion (pET32a); label: CyDye5-dUTP incorporated in the synthesized complementary strand; 3' TTTTT single-stranded linker to array surface; dsDNA, one strand shown. The method, boiled down:
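The binding signal for each feature is its fluorescence intensity in arbitrary units. An Axon 4000B scanner was used to read a custom Agilent array that had been made double-stranded with Cy5-dUTP primer extension, blocked with 2% BSA, incubated at 25 °C for 1 h with 200 nM protein in PBS, 2% BSA, salmon testes DNA and 50 µM zinc acetate, and washed. The protein was an N-terminal polyhistidine–DsRed transcription factor fusion from E. coli BL21-CodonPlus, purified on Ni–NTA.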
As for “GACCACTCCGAAGCTGTAGACATCAACCTTTGCTGTTATTCGGAGTCACCTAGTGCAG”, the binding signal was 8400 fluorescence intensity (a.u.).

With “ATTATTTTTTTCATTCATGTTCGAAAACCACTTCCGACATCGGAGTCACCTAGTGCAG”, the binding signal is 9810 fluorescence intensity (a.u.).

As to “GCATATTTTACATTAGTTTCATTAGCACGTTTGTCATCAACGGAGTCACCTAGTGCAG”, the binding signal was 8980 fluorescence intensity (a.u.).

With “GCCCCGCCGTCGTCTTGCCGCGCCGCTCCTCCTCATCATCCGGAGTCACCTAGTGCAG”, the binding signal is 9500 fluorescence intensity (a.u.).

Regarding “AGCCGCGCCGATTTTGTTCGTTCCGTTTCTAGGAGTAGCACGGAGTCACCTAGTGCAG”, the binding signal was 8500 fluorescence intensity (a.u.).

With “CCCGTGCGGCGCGCACACGTCACTCTACCTAGCTTACACCCGGAGTCACCTAGTGCAG”, the binding signal was 10900 fluorescence intensity (a.u.).

For the sequence “CGATTTTTCTGGCGCTGATCGGGCGCCCGATCCCCGGTATCGGAGTCACCTAGTGCAG”, the binding signal was 9160 fluorescence intensity (a.u.).

For “TGTGTGCAATGCCGTGATGATGCGTTTGGAGAGGTGACTCCGGAGTCACCTAGTGCAG”, the binding signal was 8040 fluorescence intensity (a.u.).

Take “ATTCAACATCCATGTCATCCTATCTCTATATTTTTTCTATCGGAGTCACCTAGTGCAG”: the binding signal was 10400 fluorescence intensity (a.u.).

As for “TGTTAATTCCACATCAGCGCTACGTCAATGCCACGTGGTACGGAGTCACCTAGTGCAG”, the binding signal is 8350 fluorescence intensity (a.u.).

Take “AAGAAAAAAAAGAGAGAGGAGTGCATTGCCCGCGTGTCCGCGGAGTCACCTAGTGCAG”: the binding signal was 10600 fluorescence intensity (a.u.).

For the sequence “ATTTGTTGCCAAAGTGGTTCTTACCTTTGTTTTTCTTTGACGGAGTCACCTAGTGCAG”, the binding signal was 10400 fluorescence intensity (a.u.).

With “CTGGGCCCAGTTGTTGACTTCCACCTTTGCTTGGTTAGCTCGGAGTCACCTAGTGCAG”, the binding signal is 9300 fluorescence intensity (a.u.).

Take “TTGGGATGAGATTTTTTTTTTTTTGTCGAATTCTGACGAACGGAGTCACCTAGTGCAG”: the binding signal was 9650 fluorescence intensity (a.u.).

Take “CCCAAGTCAAAGCCCAAGCCCAGCCCAACCAGCGGTGACCCGGAGTCACCTAGTGCAG”: the binding signal was 8160 fluorescence intensity (a.u.).

Take “AACCAATCACCGGCCGCGAGCGTCACCCCGGAAAATATAACGGAGTCACCTAGTGCAG”: the binding signal was 8280 fluorescence intensity (a.u.).

As to “GGGGCGTCCAGCGAGGCTTCAGTTTAGCTGCTCTCTTTTGCGGAGTCACCTAGTGCAG”, the binding signal was 9650 fluorescence intensity (a.u.).

For “CTCTTGCACAAGGTACTTTTCTTTTTCTTTCTTTATTCTTCGGAGTCACCTAGTGCAG”, the binding signal is 9310 fluorescence intensity (a.u.).

Take “AATGGTTTTGTGAGTTGAGGGATGCCATATTATCTTGTTTCGGAGTCACCTAGTGCAG”: the binding signal is 8750 fluorescence intensity (a.u.).

In the case of “TCCCCAACCCTCATCGCTTTCAATGTGTTCGTCTATCTAACGGAGTCACCTAGTGCAG”, the binding signal is 10300 fluorescence intensity (a.u.).

As for “GTTTTGAAAGGTATTGTTGGGTAGTAATAGGCTTCATCTTCGGAGTCACCTAGTGCAG”, the binding signal is 10200 fluorescence intensity (a.u.).

As for “CGCCCATCGCGGCATCGCCTCCTCTGCTTCGTTTCCTTCTCGGAGTCACCTAGTGCAG”, the binding signal was 8600 fluorescence intensity (a.u.).

As for “AGCCGATCAGCTTCCAGCTCTTCATCCCAGCTTGCATCGTCGGAGTCACCTAGTGCAG”, the binding signal was 9300 fluorescence intensity (a.u.).

“TTCATTATTCATCCATCACTCGTTCGATCTCTCCCATATACGGAGTCACCTAGTGCAG”: the binding signal was 10100 fluorescence intensity (a.u.).

As to “TCCGCTCCATTCCTGATTCCTCCTCCCAACTCTTGCTTCCCGGAGTCACCTAGTGCAG”, the binding signal was 10800 fluorescence intensity (a.u.).

Consider “ATCGTTATCATGATAACATTAGTTTTTTCGTTGCATTTTTCGGAGTCACCTAGTGCAG”, for which the binding signal was 9160 fluorescence intensity (a.u.).

Consider “GGCAATGCTTCACCGTCGCTTGCACCCCTTTCTCATGTGTCGGAGTCACCTAGTGCAG”, for which the binding signal was 9790 fluorescence intensity (a.u.).

With “AACTGTACCCACTCCATTTCCGTTGAAACTAATTATTTTCCGGAGTCACCTAGTGCAG”, the binding signal is 10800 fluorescence intensity (a.u.).

As for “AGAGATTTAGGGGAGGATTGGATTAGGTTACACTATATAGCGGAGTCACCTAGTGCAG”, the binding signal is 8120 fluorescence intensity (a.u.).

In the case of “TCGTGAACCGGCGCTACTACTTCTCCTGTGCTTTGACCACCGGAGTCACCTAGTGCAG”, the binding signal is 11200 fluorescence intensity (a.u.).

On to “CATGTACCATATAGCATGCACTGTATATCCTTCTACCTCTCGGAGTCACCTAGTGCAG”, for which the binding signal is 8500 fluorescence intensity (a.u.).

Turning to “TGTGAGCACTCAGCACTGTATCTGTATGTTGTTTTGTCGTCGGAGTCACCTAGTGCAG”, the binding signal was 11200 fluorescence intensity (a.u.).

Consider “CATTCGTTTCTCTCTTTCTCTTCCCTGCTACTCGCTCCTCCGGAGTCACCTAGTGCAG”, for which the binding signal was 8100 fluorescence intensity (a.u.).

On to “CGCACACGTGTCCCCTATCACGCGTACTCTAGCTTCCAGTCGGAGTCACCTAGTGCAG”, for which the binding signal was 9070 fluorescence intensity (a.u.).

Regarding “CGCTGTATTTTGTTGGGATCACCTGTACATTTCTTCACAACGGAGTCACCTAGTGCAG”, the binding signal was 10900 fluorescence intensity (a.u.).

For the sequence “ACATTAAGCATAAAGCATTATGTTTCTTTTTTTTTTTCATCGGAGTCACCTAGTGCAG”, the binding signal was 8110 fluorescence intensity (a.u.).

Consider “AACTTCAGTCCTTTTCCATCACATCAACCTGTCATATACACGGAGTCACCTAGTGCAG”, for which the binding signal was 8220 fluorescence intensity (a.u.).

For the sequence “GCAGTCCCAATTTTGCAATTTTCTCCTCAACGGTTGCCTACGGAGTCACCTAGTGCAG”, the binding signal is 8190 fluorescence intensity (a.u.).

For “GATCGAGTACCGGAGGCTGACCCCGGAAGGGGCGGGGAGGCGGAGTCACCTAGTGCAG”, the binding signal is 11400 fluorescence intensity (a.u.).

Consider “ACCTTACGCGACCCCGAACCTAAACCCTCTGCGAAACGCTCGGAGTCACCTAGTGCAG”, for which the binding signal is 9140 fluorescence intensity (a.u.).

Turning to “ACCAGCACCCCACCTCGGCTTTACTTCTCTGCTCTGCTCACGGAGTCACCTAGTGCAG”, the binding signal was 9230 fluorescence intensity (a.u.).

Consider “TCCATATACAGTTTCCGGCCAAAAAATTACTAACACCGTTCGGAGTCACCTAGTGCAG”, for which the binding signal is 8700 fluorescence intensity (a.u.).
